# Source: US20040009502A1 (published 2004)
# Chains of the proteins cited; added tags and fusions are not shown. Lines headed by an entry give the natural chain unless they say otherwise; changes in a name come on top.
# UniProt P04386: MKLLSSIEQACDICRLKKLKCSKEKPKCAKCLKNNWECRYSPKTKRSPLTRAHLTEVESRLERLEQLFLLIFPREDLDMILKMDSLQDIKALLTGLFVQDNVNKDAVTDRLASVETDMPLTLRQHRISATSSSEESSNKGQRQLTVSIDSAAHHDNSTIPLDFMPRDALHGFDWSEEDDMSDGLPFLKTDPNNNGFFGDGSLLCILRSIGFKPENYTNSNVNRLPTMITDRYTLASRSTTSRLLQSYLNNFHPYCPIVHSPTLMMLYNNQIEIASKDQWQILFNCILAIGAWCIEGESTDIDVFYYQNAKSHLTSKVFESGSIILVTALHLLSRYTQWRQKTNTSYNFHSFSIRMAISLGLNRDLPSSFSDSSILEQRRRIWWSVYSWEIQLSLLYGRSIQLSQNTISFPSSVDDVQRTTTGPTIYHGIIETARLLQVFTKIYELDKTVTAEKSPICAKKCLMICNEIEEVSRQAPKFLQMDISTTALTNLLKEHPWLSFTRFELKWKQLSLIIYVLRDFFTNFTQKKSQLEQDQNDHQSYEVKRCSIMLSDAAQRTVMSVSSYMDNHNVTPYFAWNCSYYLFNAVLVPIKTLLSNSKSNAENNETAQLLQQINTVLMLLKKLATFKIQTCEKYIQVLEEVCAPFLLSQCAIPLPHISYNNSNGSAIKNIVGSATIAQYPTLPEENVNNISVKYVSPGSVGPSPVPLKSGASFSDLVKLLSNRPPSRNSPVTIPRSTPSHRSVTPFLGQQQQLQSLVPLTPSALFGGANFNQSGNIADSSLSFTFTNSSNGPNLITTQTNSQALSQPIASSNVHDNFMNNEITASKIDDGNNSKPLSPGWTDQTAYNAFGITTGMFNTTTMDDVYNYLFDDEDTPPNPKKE
# UniProt Q7TSJ6: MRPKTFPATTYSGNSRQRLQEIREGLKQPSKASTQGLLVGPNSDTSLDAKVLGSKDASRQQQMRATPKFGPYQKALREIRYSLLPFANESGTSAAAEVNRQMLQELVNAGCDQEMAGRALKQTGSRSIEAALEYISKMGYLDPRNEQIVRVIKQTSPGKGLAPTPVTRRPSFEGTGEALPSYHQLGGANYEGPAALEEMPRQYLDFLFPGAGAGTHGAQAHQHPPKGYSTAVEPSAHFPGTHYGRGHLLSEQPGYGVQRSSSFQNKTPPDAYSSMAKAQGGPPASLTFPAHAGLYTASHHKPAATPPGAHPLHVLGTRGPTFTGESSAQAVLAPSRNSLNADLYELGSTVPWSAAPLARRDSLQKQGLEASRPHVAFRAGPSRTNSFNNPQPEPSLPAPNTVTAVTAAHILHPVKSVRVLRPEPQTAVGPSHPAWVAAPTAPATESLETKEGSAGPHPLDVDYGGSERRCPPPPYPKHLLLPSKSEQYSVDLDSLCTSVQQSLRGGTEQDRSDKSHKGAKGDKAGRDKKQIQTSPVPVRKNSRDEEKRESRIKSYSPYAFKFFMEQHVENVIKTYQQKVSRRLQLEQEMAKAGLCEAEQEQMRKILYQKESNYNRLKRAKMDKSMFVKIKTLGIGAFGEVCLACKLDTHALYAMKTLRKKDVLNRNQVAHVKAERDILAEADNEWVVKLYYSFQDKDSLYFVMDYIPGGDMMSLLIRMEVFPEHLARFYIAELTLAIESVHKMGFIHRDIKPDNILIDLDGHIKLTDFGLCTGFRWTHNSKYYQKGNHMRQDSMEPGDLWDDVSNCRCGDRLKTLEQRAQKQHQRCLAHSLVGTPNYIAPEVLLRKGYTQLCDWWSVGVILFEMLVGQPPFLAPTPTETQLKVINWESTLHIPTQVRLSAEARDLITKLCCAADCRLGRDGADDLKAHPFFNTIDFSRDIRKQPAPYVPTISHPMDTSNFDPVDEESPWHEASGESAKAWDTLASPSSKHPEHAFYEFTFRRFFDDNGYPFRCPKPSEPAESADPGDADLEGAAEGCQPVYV
# These are yes or no findings as the source states them, for the method shown. Some results given as binding are weak or reduced against the parent protein; the word gives no strength. Sequences can lack the tags named with a protein.
# B1: mRBT1N121 fused to the GAL4 activation domain (pGADT7-mRBT1N121) (other, mouse, UniProt Q9ERC3 1-121, looked up, not shown: large carriers)
# chain: MGGLKRKHSDLEEEEEEEKWDWSPTALRSYQQALLRISLDKVQRSLGPRAPSLRRHVLIHNTLQQLQAAIRLAPAPALPPEPLFLGEEDFSLSTTIGSILRELDTSMDEMEPPLNPAASSS
# notes: Made by removing the Xho I fragment from pGADT7-mRBT1
# B2: mouse Replication Protein Binding Trans-Activator (mRBT1) fused to the GAL4 activation domain (pGADT7-mRBT1) (other, UniProt Q9ERC3 1-197, looked up, not shown: large carriers)
# chain: MGGLKRKHSDLEEEEEEEKWDWSPTALRSYQQALLRISLDKVQRSLGPRAPSLRRHVLIHNTLQQLQAAIRLAPAPALPPEPLFLGEEDFSLSTTIGSILRELDTSMDEMEPPLNPAASSSPQNEIVSQADPVFLEALSSRYLGDSGLDDFFLDIDTSAVEKDVALPPPEPPHSLFCSPGSWEWNELDHIMEIILGS
# How the values were obtained:
# [1] = molecular target: T1, mouse Replication Protein Binding Trans-Activator (mRBT1) fused to the GAL4 activation domain (pGADT7-mRBT1) (mouse) (UniProt Q9ERC3); experiment: yeast two-hybrid (growth on quadruple dropout plates)
# T1 sequence (looked up): B2 chain
# [2] = molecular target: T2, mLATS2 fused to the GAL4 DNA binding domain (pGBKT7-mLATS2) (mouse) (UniProt P04386+Q7TSJ6); experiment: as above
# [3] = molecular target: T2, mLATS2 fused to the GAL4 DNA binding domain (pGBKT7-mLATS2) (mouse); experiment: yeast two-hybrid
molecule,measurement,setting,value
mLATS2 fused to the GAL4 DNA binding domain (pGBKT7-mLATS2) (from UniProt P04386 1-147; Q7TSJ6 1-1042) (enzyme),binding,[1],binds
B1,binding,[2],binds
B2,binding,[3],binds
